These compounds were tested on muscarinic cholinergic receptor (assay: [3H] Quinuclidinyl Benzilate (QNB) Binding Assay, cerebral cortex). Conditions: ratio of Ki values, 3H-QNB over 3H-CD, rat cerebral cortex.

Row | Structure (SMILES) | Ratio ^3 H-QNB (ctx) / ^3 H-CD (ctx)
1 | CC(C)(C)OC(=O)N1C[C@H]2C[C@@H]1CN2c1cnccn1 [Example 3, (R,R)-2-(tert-Butyloxycarbonyl)-5-(2-pyrazinyl)-2,5-diazabicyclo[2.2.1]heptane] | > 100
2 | Cl.c1cnc(N2C[C@H]3C[C@@H]2CN3)cn1 [Example 11, (R,R)-2-(2-Pyrazinyl)-2,5-diazabicyclo[2.2.1]heptane hydrochloride] | 53.7
3 | Cl.c1cnc(N2C[C@@H]3C[C@H]2CN3)cn1 [Example 12, (S,S)-2-(2-Pyrazinyl)-2,5-diazabicyclo[2.2.1]heptane hydrochloride] | 8.8
4 | Cc1nsc(N2C[C@H]3C[C@@H]2CN3)n1 [Example 14, (R,R)-2-(3-Methyl-1,2,4-thiadiazol-5-yl)-2,5-diazabicyclo[2.2.1]heptane] | 29
5 | Cc1noc(N2C[C@H]3C[C@@H]2CN3)n1 [Example 18, (R,R)-2-(3-Methyl-1,2,4-oxadiazol-5-yl)-2,5-diazabicyclo[2.2.1]heptane] | 108.2
6 | CN1C[C@@H]2C[C@H]1CN2c1cnccn1 [Example 19, (S,S)-2-Methyl-5-(2-pyrazinyl)-2,5-diazabicyclo[2.2.1]heptane] | 13.8
7 | Cc1cnc(C)c(N2C[C@@H]3C[C@H]2CN3C)n1 [Example 22, (S,S)-2-(3,6-Dimethylpyrazin-2-yl)-5-methyl-2,5-diazabicyclo[2,2.1]heptane] | 1.9
8 | CN1C[C@@H]2C[C@H]1CN2c1nccnc1Cl [Example 23, (S,S)-2-(3-Chloropyrazin-2-yl)-5-methyl-2,5-diazabicyclo[2.2.1]heptane] | 2.6
9 | CN1C[C@@H]2C[C@H]1CN2c1cncc(Cl)n1 [Example 24, (S,S)-2-(6-Chloropyrazin-2-yl)-5-methyl-2.5-diazabicyclo[2.2.1]heptane] | 2.3
10 | Cc1nsc(N2C[C@@H]3C[C@H]2CN3C)n1 [Example 26, (S,S)-2-Methyl-5-(3-methyl-1,2,4-thiadiazol-5-yl)-2,5-diazabicyclo[2.2.1]heptane] | 2.7
11 | CN1C[C@@H]2C[C@H]1CN2c1ccc([N+](=O)[O-])s1 [Example 29, (S,S)-2-Methyl-5-(5-nitro-2-thienyl)-2,5-diazabicyclo[2.2.1]heptane] | 1.9
12 | CN1C[C@@H]2C[C@H]1CN2c1ccccc1[N+](=O)[O-] [Example 30, (S,S)-2-Methyl-5-(2-nitrophenyl)-2,5-diazabicyclo[2.2.1]heptane] | 1.5
13 | COc1cncc(N2C[C@@H]3C[C@H]2CN3C)n1 [Example 32, (S,S)-2-Methyl-5-(6-methoxypyrazin-2-yl)-2,5-diazabicyclo[2.2.1]heptane] | 1.3
14 | Cc1nccnc1N1C[C@@H]2C[C@H]1CN2C [Example 35, (S,S)-2-Methyl-5-(3-methylpyrizin-2-yl)-2,5-diazabicyclo[2.2.1]heptane] | 3.7
